Paper PMC9636241
No constants are given. Whether binding was seen depends on the method and setting. Binding seen in cells or lysates may run through a third protein. Here binding means that the protein was enriched with, or labelled near, the bait; the list need not be complete. Sequences can lack the tags named with a protein.

Sequences of proteins named here, by UniProt entry; tags and fusion partners are left off. Residues count along the entry.
UniProt P52503, residues 21-116: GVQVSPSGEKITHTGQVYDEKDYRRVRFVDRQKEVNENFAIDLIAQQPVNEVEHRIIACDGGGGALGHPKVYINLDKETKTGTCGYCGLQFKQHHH
UniProt P56392, residues 22-80: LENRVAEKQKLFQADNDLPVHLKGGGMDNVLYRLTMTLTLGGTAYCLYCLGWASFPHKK
UniProt Q8K199: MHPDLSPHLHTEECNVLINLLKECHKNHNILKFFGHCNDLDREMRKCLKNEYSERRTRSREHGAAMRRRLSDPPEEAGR
UniProt P56391: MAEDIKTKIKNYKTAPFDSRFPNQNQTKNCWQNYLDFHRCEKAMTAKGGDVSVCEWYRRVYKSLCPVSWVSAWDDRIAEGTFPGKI
UniProt P03921: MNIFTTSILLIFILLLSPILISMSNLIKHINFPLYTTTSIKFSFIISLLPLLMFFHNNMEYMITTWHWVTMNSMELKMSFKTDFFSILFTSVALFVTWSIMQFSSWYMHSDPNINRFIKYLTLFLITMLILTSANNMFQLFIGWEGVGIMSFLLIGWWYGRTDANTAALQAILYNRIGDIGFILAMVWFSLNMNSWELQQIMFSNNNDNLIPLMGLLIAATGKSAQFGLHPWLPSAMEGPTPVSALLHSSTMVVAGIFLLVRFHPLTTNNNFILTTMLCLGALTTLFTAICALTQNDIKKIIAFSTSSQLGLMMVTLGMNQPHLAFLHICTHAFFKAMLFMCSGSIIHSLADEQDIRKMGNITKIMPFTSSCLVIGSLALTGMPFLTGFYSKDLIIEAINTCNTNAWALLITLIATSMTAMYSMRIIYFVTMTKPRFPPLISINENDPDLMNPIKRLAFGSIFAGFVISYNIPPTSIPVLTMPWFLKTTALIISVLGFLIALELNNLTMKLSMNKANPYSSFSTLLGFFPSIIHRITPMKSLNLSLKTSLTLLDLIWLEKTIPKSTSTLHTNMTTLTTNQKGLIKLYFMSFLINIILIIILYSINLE
UniProt Q9Z1P6: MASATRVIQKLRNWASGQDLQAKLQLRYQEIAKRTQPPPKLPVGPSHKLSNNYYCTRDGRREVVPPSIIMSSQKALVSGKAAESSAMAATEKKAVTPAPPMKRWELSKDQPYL

T1: FLAG-MTFP1 (Mitochondrial Fission Process 1) (UniProt Q9CRB8)
T1 sequence: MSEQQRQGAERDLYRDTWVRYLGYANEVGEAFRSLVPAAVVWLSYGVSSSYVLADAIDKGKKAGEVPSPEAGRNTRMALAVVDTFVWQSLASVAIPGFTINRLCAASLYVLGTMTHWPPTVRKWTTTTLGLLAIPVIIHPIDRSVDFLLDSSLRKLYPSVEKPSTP

B1: NDUFA10 (protein, UniProt Q99LC3 36-355)
chain: LRYGLLAAILGDKTTKKLHEYSRVITVDGNICSGKNKLAKEIAQQLGMKHYPEAGIQYSSTTTGDGRPLDIEFSGSCSLEKFYDDPKSNDGNSYRLQSWLYASRLLQYADALEHLLSTGQGVVLERSIYSDFVFLEAMYNQGYIRKQCVDHYNEIKRLTLPEYLPPHAVIYIDVPVPEVQSRIQKKGDPHEMKVTSAYLQDIENAYKKTFLPKMSEMCEVLVYDSWEAEDPTKVVEDIEYLKYNKGPWLKQDDWTFHYLRMLVQDKTEVLNYTTIPVYLPEITIGAHQGSRIYNSFRELPGRKYAPGYNAEVGDKWIWLK
B2: SCO2 (protein, UniProt Q8VCL2 42-255)
chain: QGPGLRTRLLITALFGAGLGWAWLAARAEKEQWRQQQRTEALRQAAVGQGDFSLLDHKGQPRCKADFRGQWVLMYFGFTHCPDICPDELEKLVQVVRKLEAEPDLPLVQPVFITVDPERDDVAAMARYVQEFHPRLLGLTGSTEQVAHASRNYRVYYSAGPKDEDQDYIVDHSIAIYLLNPDGLFTDYYGRSRSAEQIVESIRRHIAAFHSVLP
B3: ATP5L (protein, UniProt Q9CPQ8 1-103)
chain: MAKFIRNFAEKAPSMVAAAVTYSKPRLATFWHYAKVELVPPTPAEIPTAIQSVKKIIQSAKTGSFKHLTVKEAVLNGLVATEVWMWFYIGEIIGKRGIVGYDV
B4: USMG5 (protein, UniProt Q78IK2 1-58)
chain: MAGAESDGQFQFTGIKKYFNSYTLTGRMNCVLATYGGIALLVLYFKLRPKKTPAVKAT
B5: ADP/ATP translocase ANT1 (protein, UniProt P48962 1-298)
chain: MGDQALSFLKDFLAGGIAAAVSKTAVAPIERVKLLLQVQHASKQISAEKQYKGIIDCVVRIPKEQGFLSFWRGNLANVIRYFPTQALNFAFKDKYKQIFLGGVDRHKQFWRYFAGNLASGGAAGATSLCFVYPLDFARTRLAADVGKGSSQREFNGLGDCLTKIFKSDGLKGLYQGFSVSVQGIIIYRAAYFGVYDTAKGMLPDPKNVHIIVSWMIAQSVTAVAGLVSYPFDTVRRRMMMQSGRKGADIMYTGTLDCWRKIAKDEGANAFFKGAWSNVLRGMGGAFVLVLYDEIKKYV
B6: inorganic phosphate carrier SLC25A3 (protein, UniProt Q8VEM8 46-357)
chain: AVEEYSCEFGSMKYYALCGFGGVLSCGLTHTAVVPLDLVKCRMQVDPQKYKGIFNGFSITLKEDGVRGLAKGWAPTLIGYSMQGLCKFGFYEVFKALYSNILGEENTYLWRTSLYLASSASAEFFADIALAPMEAAKVRIQTQPGYANTLREAVPKMYKEEGLNAFYKGVAPLWMRQIPYTMMKFACFERTVEALYKFVVPKPRSECTKAEQLVVTFVAGYIAGVFCAIVSHPADSVVSVLNKEKGSTASQVLQRLGFRGVWKGLFARIIMIGTLTALQWFIYDSVKVYFRLPRPPPPEMPESLKKKLGLTE
B7: heat shock protein TRAP1 (protein, UniProt Q9CQN1 61-706)
chain: STQAAEDKEEESLHSIISNTEAVRGSVSKHEFQAETKKLLDIVARSLYSEKEVFIRELISNASDALEKLRHKLVCEGQVLPEMEIHLQTDAKKGTITIQDTGIGMTQEELVSNLGTIARSGSKAFLEALQNQAETSSKIIGQFGVGFYSAFMVADKVEVYSRSAAPESPGYQWLSDGSGVFEIAEASGVRPGTKIIIHLKSDCKDFASESRVQDVVTKYSNFVSFPLYLNGKRINTLQAIWMMDPKDISEFQHEEFYRYIAQAYDKPRFTLHYKTDAPLNIRSIFYVPEMKPSMFDVSRELGSSVALYSRKVLIQTKAADILPKWLRFIRGVVDSEDIPLNLSRELLQESALIRKLRDVLQQRLIKFFIDQSKKDAEKYAKFFEDYGLFMREGIVTTAEQDIKEDIAKLLRYESSALPAGQLTSLPDYASRMQAGTRNIYYLCAPNRHLAEHSPYYEAMKQKHTEVLFCYEQFDELTLLHLREFDKKKLISVETDIVVDHYKEEKFEDTSPADERLSEKETEDLMAWMRNALGSRVTNVKVTFRLDTHPAMVTVLEMGAARHFLRMQQLAKTQEERAQLLQPTLEINPRHTLIKKLCQLRESEPELAQLLVDQIYENAMIAAGLVDDPRAMVGRLNDLLVKVLEKH
B8: NDUFB4 (protein, UniProt Q9CQC7 1-129)
chain: MSGSKYKPAPLATLPSTLDPAEYDVSPETRRAQVERLSIRARLKREYLLQYNDPKRVSHIEDPALIRWTYARSANIYPNFRPTPKNSLLGAVAGFGPLIFWYYVFKTDRDRKERLIQEGKLDRKFNISY

Target: T1, FLAG-MTFP1 (Mitochondrial Fission Process 1)
Test: affinity purification with mass spectrometry; 500 µg cardiac crude mitochondria of FLAG-MTFP1 knock-in mice (WT mice as control) lysed in IP buffer (20 mM HEPES-KOH pH 7.5, 150 mM NaCl, 0.25% Triton X-100); anti-FLAG magnetic beads, 2 h at 4 °C; eluates analysed by LC-MS/MS

Row | Molecule | binding
1 | NDUFS6 (from UniProt P52503 21-116) | binds
2 | COX7A1 (from UniProt P56392 22-80) | binds
3 | CMC2 (from UniProt Q8K199 1-79) | binds
4 | COX6B1 (from UniProt P56391 1-86) | binds
5 | MTND5 (from UniProt P03921 1-607) | binds
6 | NDUFA7 (from UniProt Q9Z1P6 1-113) | binds
7 | B1 | binds
8 | B2 | binds
9 | B3 | binds
10 | B4 | binds
11 | B5 | binds
12 | B6 | binds
13 | B7 | binds
14 | B8 | binds
